# Source: publication PMC7819943, “Rice protein-binding microarrays: a tool to detect cis-acting elements near promoter regions in rice”
# Sequences of proteins named here, by UniProt entry; tags and fusion partners are left off.
# UniProt Q0JBA9, entry or part of it: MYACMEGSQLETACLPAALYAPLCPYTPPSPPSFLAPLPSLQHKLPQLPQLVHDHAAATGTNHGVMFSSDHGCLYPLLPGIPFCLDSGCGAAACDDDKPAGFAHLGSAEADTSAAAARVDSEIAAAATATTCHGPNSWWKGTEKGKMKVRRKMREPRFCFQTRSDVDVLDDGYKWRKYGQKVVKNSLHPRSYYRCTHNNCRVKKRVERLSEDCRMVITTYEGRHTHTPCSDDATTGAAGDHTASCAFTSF
# The other results are listed elsewhere or left out.
# Target: OsWRKY34 (Oryza sativa, UniProt Q0JBA9 1-250)
# Experiment: protein-binding microarray (RPBM); PBS, 2% BSA, 51.3 ng/ul salmon testes DNA, 50 uM zinc acetate, 200 nM TF, 25 C, 1 h; high values mean tight binding
# Conditions: protein: recombinant; tags: N-terminal polyhistidine and DsRed monomer fusion (pET32a); label: CyDye5-dUTP incorporated in the synthesized complementary strand; 3' TTTTT single-stranded linker to array surface; dsDNA, one strand shown
# In short: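 Transcription factors were made in E. coli BL21-CodonPlus as N-terminal fusions to a polyhistidine tag and DsRed, then purified on Ni–NTA. After primer extension with Cy5-dUTP and blocking with 2% BSA, a custom Agilent array was exposed for 1 h at 25 °C to 200 nM protein in PBS, 2% BSA, salmon testes DNA and 50 µM zinc acetate. Washed arrays were scanned on an Axon 4000B, and the binding signal is per-feature fluorescence intensity in arbitrary units.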
row,Sequence,binding signal
1,AGGTTTGAGTACTCATTTTGCAACTTAGCGTATATTTTTACGGAGTCACCTAGTGCAG,8860 fluorescence intensity (a.u.)
2,TGTTCGATCTCCTGCCCAGGCACGCGCTTGCCATCGTAACCGGAGTCACCTAGTGCAG,8120 fluorescence intensity (a.u.)
3,AACTTTTCCGTCACATCGTTTCAATTTCAATCAAACTTTCCGGAGTCACCTAGTGCAG,10300 fluorescence intensity (a.u.)
4,GACCGCTGCACTTTCATCAACCCGTCCTCTACGAACTCATCGGAGTCACCTAGTGCAG,8240 fluorescence intensity (a.u.)
5,TTATGGGGATCTCATCCTTTCTTATTTTTCTTCGTTTCATCGGAGTCACCTAGTGCAG,9640 fluorescence intensity (a.u.)
6,TCCCATTCAATATCTTCTGCTGTATTTCTGCAAGTAAAAACGGAGTCACCTAGTGCAG,8130 fluorescence intensity (a.u.)
7,TAGTTACATATTACACTATTAATACCTAGTCCCATCTGTCCGGAGTCACCTAGTGCAG,9340 fluorescence intensity (a.u.)
8,CATTCGTTTTTCCATCTGCCCAATGTTTTTTCTCGTACTCCGGAGTCACCTAGTGCAG,10200 fluorescence intensity (a.u.)
9,CTCTCTACCGGCTTAACCACTTTGCCACTTTGGCCTTTCACGGAGTCACCTAGTGCAG,8160 fluorescence intensity (a.u.)
10,TGATGCCGTTGACTTTTTCTCATATGTTTGACCATTCGTCCGGAGTCACCTAGTGCAG,44800 fluorescence intensity (a.u.)
11,CCGATGATAGCTCTCGATTTAGTGGCCGCCGCAAGACTTCCGGAGTCACCTAGTGCAG,8240 fluorescence intensity (a.u.)
12,GCGAATCCTATCAACTTGCGTTTGGTCGGCTAATTCTAACCGGAGTCACCTAGTGCAG,9380 fluorescence intensity (a.u.)
13,CCATCTCCTCCATTGCCGTCGTTTGAAATTCAGGTAGAACCGGAGTCACCTAGTGCAG,8120 fluorescence intensity (a.u.)
14,TTGCACCAATAAATACACCCTTGGTCAACACGGATGCTTTCGGAGTCACCTAGTGCAG,8900 fluorescence intensity (a.u.)
15,CGGTGAACGAGGAGGTGCTGGGGCTGGTGGTGTTCAAGTCCGGAGTCACCTAGTGCAG,8970 fluorescence intensity (a.u.)
16,AGATCGCGCTTCCACGGTTCCACCTACACCGCATCACGTGCGGAGTCACCTAGTGCAG,9760 fluorescence intensity (a.u.)
17,ATTTATTTTGGGATGGGGAGGGAGACAACTACAGTGTTTCCGGAGTCACCTAGTGCAG,18200 fluorescence intensity (a.u.)
18,GAGCGCGCGCGTTGGGCGGGAGGGGTTTGGTTGGTGAGCGCGGAGTCACCTAGTGCAG,11800 fluorescence intensity (a.u.)
19,CGGCGTCGACTCCTCCTGACTTCGCCCGCCGACTCCGCCGCGGAGTCACCTAGTGCAG,8410 fluorescence intensity (a.u.)
20,CTAGTGCTTTGCCTTTTTATATTGGAGTTGCAAAGATTCCCGGAGTCACCTAGTGCAG,8510 fluorescence intensity (a.u.)
21,GCATTGTCACACACTCCTGACTACCCTGCAACTGTTTTTTCGGAGTCACCTAGTGCAG,8970 fluorescence intensity (a.u.)

# For reference, part of the list above.
row,Sequence,binding signal
9,CTCTCTACCGGCTTAACCACTTTGCCACTTTGGCCTTTCACGGAGTCACCTAGTGCAG,8160 fluorescence intensity (a.u.)
10,TGATGCCGTTGACTTTTTCTCATATGTTTGACCATTCGTCCGGAGTCACCTAGTGCAG,44800 fluorescence intensity (a.u.)
11,CCGATGATAGCTCTCGATTTAGTGGCCGCCGCAAGACTTCCGGAGTCACCTAGTGCAG,8240 fluorescence intensity (a.u.)

# Remaining list, next part.

row,Sequence,binding signal
1,AATTGGCTGAGTGAGGTAGTTTTGTTTTGCCCAGTTATCACGGAGTCACCTAGTGCAG,11600 fluorescence intensity (a.u.)
2,CTCTCTCTCTCTCTCTCTCTCGGCTTTGGTTTGCCGCGTTCGGAGTCACCTAGTGCAG,14100 fluorescence intensity (a.u.)
3,TGTCTCTACTGTTTTATCTCCTCGACATATGTTTATATCTCGGAGTCACCTAGTGCAG,9220 fluorescence intensity (a.u.)
4,GAATCAAGTCAACCTGCCACATCAGCCTAAACCACTTACACGGAGTCACCTAGTGCAG,9310 fluorescence intensity (a.u.)
5,TGGTACACTTCCATTGCTTCCTAAAACCATCATGACATCTCGGAGTCACCTAGTGCAG,10400 fluorescence intensity (a.u.)
6,TATTACTTCCTTCGTTTCAAAATGTTTGATACCGTTGACTCGGAGTCACCTAGTGCAG,12000 fluorescence intensity (a.u.)
7,GTATTTATTTTTCTTTCCTGCCCTTGATATTATTTATTATCGGAGTCACCTAGTGCAG,8240 fluorescence intensity (a.u.)
8,ACTTCCCCTTTCTTTTGTGACGTGCTATTCAGTTCTCTTTCGGAGTCACCTAGTGCAG,9640 fluorescence intensity (a.u.)
9,GTGCCTTTTTGTTGTGTTTGGATTGCATCTGTAGCTCCATCGGAGTCACCTAGTGCAG,10900 fluorescence intensity (a.u.)
10,TTTCTCGTCTATTCATTTTCCCAGACATGCTTTTTAAAAACGGAGTCACCTAGTGCAG,8300 fluorescence intensity (a.u.)
11,CGTCCCTCACCACATTCGCTGTCGCCGTCCTCCGCACCCTCGGAGTCACCTAGTGCAG,10700 fluorescence intensity (a.u.)
12,TTAATTTTTTTCTCATTTGTGCGTCCTATGGTCAAGCGTCCGGAGTCACCTAGTGCAG,8490 fluorescence intensity (a.u.)
13,CCCTCCTCGTCCGCTCGTCATCCTCGACTTGACCCTCGACCGGAGTCACCTAGTGCAG,10100 fluorescence intensity (a.u.)
14,TGGGTGGTATGGTAGGGCCCTGATTGTGTTGGTCCTTTTGCGGAGTCACCTAGTGCAG,11400 fluorescence intensity (a.u.)
15,ATGGCATTATTTTTTTCTCCCATCTCTCTTTCTCTCACTACGGAGTCACCTAGTGCAG,8370 fluorescence intensity (a.u.)
16,CCTTTTTCACCTTAACTAATCACATCATTTTTCATTTAATCGGAGTCACCTAGTGCAG,8270 fluorescence intensity (a.u.)
17,CACATCACACCACTGCATACCTGTATTCCATCGAACAACCCGGAGTCACCTAGTGCAG,8860 fluorescence intensity (a.u.)
18,TCTTTGTCTCATTATCTGCAACGTGCCCACCCACCAGTCCCGGAGTCACCTAGTGCAG,9360 fluorescence intensity (a.u.)
19,TGGCCACGGCGACGACATGGCCGCCCACCACTGTTCAACCCGGAGTCACCTAGTGCAG,8910 fluorescence intensity (a.u.)
20,CTTATAGCCTACTATTATGCCTGCTCTGAGCACCTCTATTCGGAGTCACCTAGTGCAG,8690 fluorescence intensity (a.u.)
21,TAGTCCTTGTCGTTTCCATGTAGAACTCTGGTTGTCTTTCCGGAGTCACCTAGTGCAG,9720 fluorescence intensity (a.u.)
